Data source: PubChem BioAssay AID493246 (Drosophila RNAi Screening Center, 2011)

Screen: 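Identify essential fly genes by loss of cell viability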 (primary screen)
Cell system: Drosophila Kc and S2R+ cells
Knock-down reagent: long dsRNA against Drosophila genes
Read-out: 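Cell number per well after knock-down, printed as raw plate values; calls were based on per-plate z-scores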
Scale: Kc cell number and S2R+ cell number: higher = more cells remaining
Rule for the call: 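Active when the per-plate z-score of cell number is 3 or more in the direction of fewer cells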
In all, the deposit lists about 21,000 reagents; below is a random part of those with a known target gene and a result. Over the whole deposit, 429 (2%) were called active. 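Values are raw and not normalised between plates; calls rest on per-plate z-scores that were not deposited.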 Names joined by + are all predicted targets of the reagent. No sequences are given here. Not stated in the record: the amount of reagent, the time to read-out.

Gene,amplicon,"Kc cell number, rep 1","Kc cell number, rep 2","S2R+ cell number, rep 1","S2R+ cell number, rep 2",activity call
rhea,DRSC11300,1.31e6,1.39e6,1.15e6,1.18e6,inactive
alpha-Spec (alpha Spectrin),DRSC08704,1.30e6,1.35e6,1.17e6,1.20e6,inactive
Ugt37B1 (UDP-glycosyltransferase family 37 member B1),DRSC03225,1.59e6,1.55e6,1.27e6,1.40e6,inactive
CG15047,DRSC19623,1.40e6,1.31e6,1.03e6,1.16e6,inactive
CG14244,DRSC14739,1.51e6,1.46e6,9.94e5,1.11e6,inactive
CG3078,DRSC18531,3.39e5,,6.99e5,,inactive
Cdc42 (Cell division cycle 42),DRSC20228,1.34e6,1.37e6,9.96e5,1.16e6,inactive
CG6216,DRSC10606,1.31e6,1.24e6,1.28e6,1.35e6,inactive
CG3502,DRSC04381,1.52e6,1.60e6,1.02e6,1.01e6,inactive
CG10959,DRSC17769,5.58e5,,9.04e5,,inactive
CG9993,DRSC04599,1.56e6,1.68e6,1.24e6,4.54e5,inactive
Cluap1 (Clusterin associated protein 1),DRSC20637,1.45e6,1.50e6,1.02e6,1.13e6,inactive
ninaC (neither inactivation nor afterpotential C),DRSC03579,1.19e6,1.24e6,5.48e5,9.42e5,inactive
CG4438,DRSC02746,1.55e6,1.60e6,1.12e6,1.33e6,inactive
Bacc (Bacchus),DRSC00735,1.62e6,1.64e6,1.10e6,1.32e6,inactive
d4,DRSC04881,1.49e6,1.63e6,1.06e6,1.01e6,inactive
CG4021,DRSC04439,1.63e6,1.72e6,1.28e6,3.58e5,inactive
CG31437,DRSC13711,1.33e6,1.33e6,9.95e5,1.12e6,inactive
KFase (Kynurenine formamidase),DRSC03258,1.47e6,1.30e6,1.14e6,1.30e6,inactive
Rab30,DRSC03137,1.49e6,1.39e6,1.22e6,1.34e6,inactive
CROT (Carnitine O-octanoyltransferase),DRSC14518,4.83e5,,7.76e5,,inactive
CROT (Carnitine O-octanoyltransferase),DRSC14519,1.42e6,1.42e6,9.88e5,1.10e6,inactive
CG15330,DRSC18014,1.52e6,1.50e6,1.03e6,1.14e6,inactive
CG2224,DRSC15429,1.51e6,1.53e6,9.74e5,1.10e6,inactive
mxt (mextli),DRSC00551,1.21e6,1.30e6,6.60e5,8.16e5,inactive
CG12699,DRSC06162,1.34e6,1.34e6,1.03e6,9.85e5,inactive
FER (FER tyrosine kinase),DRSC12735,1.78e6,1.68e6,1.19e6,1.45e6,inactive
FER (FER tyrosine kinase),DRSC16673,1.65e6,1.65e6,1.18e6,1.29e6,inactive
CG18095,DRSC01948,1.59e6,1.60e6,1.27e6,1.46e6,inactive
CG14212,DRSC19568,1.55e6,1.53e6,1.15e6,1.31e6,inactive
CG32425,DRSC11739,8.28e5,8.22e5,6.79e5,8.55e5,active
CG32425,DRSC11764,1.52e6,1.55e6,1.30e6,1.35e6,inactive
CG14223,DRSC19580,1.54e6,1.55e6,1.16e6,1.28e6,inactive
uno (univalents only),DRSC07244,1.58e6,1.72e6,1.37e6,1.52e6,inactive
JYalpha,DRSC17224,1.57e6,1.49e6,1.12e6,1.25e6,inactive
Paris (Parkin Interacting Substrate),DRSC00451,1.15e6,1.41e6,3.91e5,2.26e5,inactive
CG2124,DRSC18208,1.49e6,1.44e6,1.01e6,1.07e6,inactive
tst (twister),DRSC14212,1.56e6,1.67e6,1.18e6,1.31e6,inactive
CG12446,DRSC20618,1.41e6,1.46e6,1.05e6,1.15e6,inactive
lectin-37Db,DRSC03279,1.48e6,1.56e6,1.25e6,4.66e5,inactive
"Caf1-55 (Chromatin assembly factor 1, p55 subunit)",DRSC16596,1.47e6,1.54e6,1.16e6,1.20e6,inactive
p130CAS + Dic61B,DRSC08588,1.33e6,1.45e6,1.05e6,9.86e5,inactive
Hmgcr (HMG Coenzyme A reductase),DRSC16704,1.42e6,1.54e6,8.12e5,9.54e5,inactive
ATP6AP2 (ATPase H+ transporting accessory protein 2),DRSC16420,1.84e6,1.92e6,1.45e6,1.68e6,inactive
CG3123,DRSC00570,1.65e6,1.60e6,1.06e6,1.24e6,inactive
Fbp2 (Fat body protein 2),DRSC03327,1.32e6,1.40e6,1.15e6,1.14e6,inactive
pho (pleiohomeotic),DRSC17219,1.59e6,1.68e6,1.05e6,1.17e6,inactive
Cortactin,DRSC16612,1.53e6,1.63e6,1.24e6,1.32e6,inactive
alien + CG17906,DRSC02641,1.51e6,1.62e6,1.21e6,1.35e6,inactive
nahoda,DRSC03954,5.49e5,,8.78e5,,inactive
nahoda,DRSC04126,1.49e6,1.58e6,1.23e6,1.29e6,inactive
Pxn (Peroxidasin),DRSC08685,1.19e6,1.27e6,1.01e6,8.94e5,inactive
PQBP1 (Poly-glutamine tract binding protein 1),DRSC14393,1.15e6,1.59e6,1.17e6,1.25e6,inactive
ref(2)P (refractory to sigma P),DRSC03601,1.72e6,1.87e6,1.42e6,4.25e5,inactive
Sgs5 (Salivary gland secretion 5),DRSC16862,1.43e6,1.58e6,1.04e6,1.14e6,inactive
Grl58a (Gustatory receptor-like 58a),DRSC04145,1.79e6,1.86e6,1.28e6,2.79e5,inactive
"ATPsynO (ATP synthase, oligomycin sensitivity conferring protein)",DRSC16780,1.62e6,1.76e6,1.13e6,1.25e6,inactive
CG6576,DRSC10663,1.31e6,1.39e6,1.25e6,1.27e6,inactive
Flad2 (Flavin adenine dinucleotide synthetase 2),DRSC02531,1.54e6,1.55e6,1.26e6,1.42e6,inactive

Ordered by “S2R+ cell number, rep 1” (lowest first): 10 of the entries above.
Gene,amplicon,"Kc cell number, rep 1","Kc cell number, rep 2","S2R+ cell number, rep 1","S2R+ cell number, rep 2",activity call
Hmgcr (HMG Coenzyme A reductase),DRSC16704,1.42e6,1.54e6,8.12e5,9.54e5,inactive
nahoda,DRSC03954,5.49e5,,8.78e5,,inactive
Pxn (Peroxidasin),DRSC08685,1.19e6,1.27e6,1.01e6,8.94e5,inactive
pho (pleiohomeotic),DRSC17219,1.59e6,1.68e6,1.05e6,1.17e6,inactive
CG3123,DRSC00570,1.65e6,1.60e6,1.06e6,1.24e6,inactive
Fbp2 (Fat body protein 2),DRSC03327,1.32e6,1.40e6,1.15e6,1.14e6,inactive
alien + CG17906,DRSC02641,1.51e6,1.62e6,1.21e6,1.35e6,inactive
nahoda,DRSC04126,1.49e6,1.58e6,1.23e6,1.29e6,inactive
Cortactin,DRSC16612,1.53e6,1.63e6,1.24e6,1.32e6,inactive
ATP6AP2 (ATPase H+ transporting accessory protein 2),DRSC16420,1.84e6,1.92e6,1.45e6,1.68e6,inactive
